PubChem BioAssay AID1688 (National Center for Advancing Translational Sciences (NCATS), 2009)
The whole screen tested about 220,000 compounds, of which about 2,400 (1.1%) were called active. The inconclusive results got no clear call from the source; some entries with a clear call stand among them for comparison. Calls follow the shape of the dose curve; as a rule, active = well fitted inhibition curve with a large enough effect; inconclusive = small, poorly fitted or top-dose-only effect, or effect the other way; inactive = no such curve, though single readings can be large or run the other way. A potency beside an inconclusive call is a rough fit, not a confirmed value.

Experiment: qHTS Multiplex Assay to Identify Dual Action Probes in a Cell Model of Huntington: Aggregate Formation (GFP); also: nearly all actives have a fitted effect of over 60% in size
Details: PC12 HttQ103-GFP aggregates, Acumen cytometry, 40 h; activity change, negative = inhibition: at 46.1 µM (top of the series) unless noted
Procedure, shortened: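 Aggregate formation scored by laser-scanning cytometer (488 excitation, 500–530 emission) in lysed PC12 cells expressing Q103-GFP after 100 nM tebufenozide induction; library tested in dose series, with ATPLite reagent added in the multiplex.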
% is scaled to controls: 0 for no effect and ±100 for the full control effect; potency is read from the fitted curve at half-maximal effect.

Compound	Potency	activity change, negative = inhibition
COC(=O)Nc1ccc(S(=O)(=O)N2CCCC(C(=O)N3CCC(C)CC3)C2)cc1 (stereo not given)	inconclusive: 35.5 µM [inhibitor, single point]	–
COc1ccc(NC(=O)c2cnc(C)cn2)c2ncccc12	active: 1.78 µM	–
Cc1cccc(C)c1-n1c(C)cc(/C=N\NC(=O)CC(=O)NC2CCCCC2)c1C	inconclusive: 35.5 µM [activator, single point]	–
CC(C)C[C@@H]1NC(=O)[C@H](C(C)C)NC(=O)c2cc([N+](=O)[O-])cc(I)c2NCC[C@@H](C(N)=O)NC1=O	–	inactive: 12.4%
CCC(=O)N1CCN(c2ccc(NC(=S)NC(=O)c3cccc([N+](=O)[O-])c3)cc2)CC1	–	inactive: 19%
COc1ccccc1CNS(=O)(=O)N(C)C	inconclusive: 6.31 µM [activator, single point]	–
c1cnn(-c2cc(N3CCOCC3)ncn2)c1	inconclusive: 5.62 µM [inhibitor, single point]	–
COc1ccc(N2CCN(C(=O)/C=C/c3ccco3)CC2)cc1	inconclusive: 10 µM [activator, partial curve, poor fit]	–
O=C(COc1ccc2ccccc2c1)Nc1ccc2c3c(cccc13)CC2	inconclusive: 7.08 µM [activator, partial curve]	–
O=C(c1cc2ccccc2oc1=O)N(Cc1ccc2c(c1)OCO2)Cc1ccco1	inconclusive: 0.562 µM [activator, full curve, poor fit]	–
O=C(NCC(c1cccs1)N1CCOCC1)c1ccccc1NS(=O)(=O)c1ccc(Cl)c([N+](=O)[O-])c1 (stereo not given)	inconclusive: 8.91 µM [inhibitor, partial curve]	–
Cc1cc(N)c2cc(NC(=O)Nc3ccc4nc(C)cc(N)c4c3)ccc2n1	–	inactive: -40.6%
Cc1ccc(C(c2nnnn2CC2CCCO2)N2CCN(Cc3ccccc3)CC2)cc1 (stereo not given)	–	inactive: 3.98% [at 9.22 µM]
CCC(=O)Nc1ccc(C(=O)Cn2ncc(Cl)c(Cl)c2=O)cc1	–	inactive: 9.34% [at 9.22 µM]
Cc1ccc(C(=O)Nc2ccccc2-c2ccccc2)o1	inconclusive: 5.01 µM [activator, full curve, poor fit]	–
CS(=O)(=O)c1cccc(C(=O)NCc2ccccc2)c1	–	inactive: -0.599%
O=C(COC(=O)C1CC1)c1c[nH]c2ccccc12	active: 0.0316 µM	–
CCOc1ccc(NC(=O)c2cccc(OC(=S)N3CCC(C)CC3)c2)cc1	inconclusive: 25.1 µM [inhibitor, single point]	–
O=C(N1CCN(c2ccc(F)cc2)CC1)C12CC3CC(CC(C3)C1)C2	inconclusive: 35.5 µM [inhibitor, single point]	–
COc1ccc(-c2cc(C(=O)NC3=NCCS3)c3ccccc3n2)cc1OC	inconclusive: 10 µM [inhibitor, partial curve]	–
CCOC(=O)C1CCN(c2c(NCCN3CCN(c4ccccc4)CC3)c(=O)c2=O)CC1	inconclusive: 5.62 µM [activator, single point]	–
COC(=O)c1cccc(S(=O)(=O)N(Cc2ccco2)Cc2cc3cc(OC)ccc3[nH]c2=O)c1	inconclusive: 11.2 µM [activator, partial curve, poor fit]	–

Compound	Potency	activity change, negative = inhibition
O=C(Cn1c2ccccc2c(=O)c2ccccc21)N/N=C/c1cc([N+](=O)[O-])ccc1N1CCCCCC1	inconclusive: 12.6 µM [activator, partial curve]	–
CCN1C(C)=C(C)S/C1=C1\SC(=S)N(C2CCCCC2)C1=O	inconclusive: 6.31 µM [inhibitor, single point]	–
COc1ccc(C(NC(=O)/C=C/c2ccco2)c2ccc(OC)c(OC)c2)cc1OC	inconclusive: 11.2 µM [activator, single point]	–
O=[N+]([O-])c1ccccc1/C=C/C=N/Nc1ccc(S(=O)(=O)Nc2ccc(Cl)cc2)cc1[N+](=O)[O-]	–	inactive: -14.4%
O=C(CCCSc1nnc(Nc2ccccc2F)s1)N1CCOCC1	–	inactive: -8.12%
Cc1ccc(C2Nc3ccc4ccccc4c3C3=C2C(=O)CC(C)(C)C3)o1 (stereo not given)	–	inactive: -11.8%
COC(=O)c1sc2nc(CN3CCN(c4cccc(C(F)(F)F)c4)CC3)[nH]c(=O)c2c1C	inconclusive: 3.55 µM [inhibitor, partial curve]	–
CC(C)[C@H](NC(=O)c1ccccc1)C(=O)N1CCc2ccccc21	inconclusive: 0.562 µM [activator, full curve, poor fit]	–
Cc1ccc(NC(=O)C2(c3ccccc3)CCOCC2)c([N+](=O)[O-])c1	–	inactive: 1.5%
COc1cc(CCCN2C(N)=NC[C@H]2Cc2ccc(O)cc2)cc(OC)c1OC	–	inactive: -10.8% [at 9.22 µM]
CCOC(=O)c1cccc(NC(=O)C2CCCN(S(=O)(=O)c3c(C)n[nH]c3C)C2)c1 (stereo not given)	inconclusive: 5.62 µM [inhibitor, single point]	–
CSc1nc(-c2ccccc2)cn1-c1ccc(NC(C)=O)cc1	inconclusive: 11.2 µM [inhibitor, single point]	–
COc1cc(C(=O)Nc2nc(-c3ccc(Cl)cc3)c(C)s2)ccc1OCC(=O)Nc1ccc(F)cc1	inconclusive: 1.26 µM [inhibitor, partial curve, poor fit]	–
Cc1ccc(N2CCN(CC(O)COc3ccc([N+](=O)[O-])cc3)CC2)cc1 (stereo not given)	inconclusive: 5.01 µM [activator, single point]	–
COCC(C)NC(=O)CCS(=O)(=O)c1nc(-c2ccc(OC)cc2)cc(C(F)(F)F)n1 (stereo not given)	inconclusive: 35.5 µM [inhibitor, single point]	–
Cc1ccc2cc(/C=N/NC(=O)c3ccccc3O)c(Cl)nc2c1	inconclusive: 5.62 µM [inhibitor, single point]	–
COC(=O)c1ccc(CN2C(=O)NC3(CCCCC3)C2=O)cc1	inconclusive: 0.0316 µM [inhibitor, full curve, poor fit]	–
COc1ccc(C(=O)CSc2nnc(CCc3ccccc3)n2-c2ccccc2)cc1	inconclusive: 20 µM [inhibitor, single point]	–
COc1ccc(S(=O)(=O)N(C)c2ccc(C(=O)N3CCCCC3)cc2)cc1OC	–	inactive: -14.4% [at 9.22 µM]
C/C(=N/NS(=O)(=O)c1ccc(Cl)cc1)c1cccc(NC(=O)c2ccc(Cl)cc2Cl)c1	inconclusive: 35.5 µM [inhibitor, single point]	–
Cc1[nH]nc(N2CCCCC2)c1[N+](=O)[O-]	inconclusive: 2.51 µM [activator, partial curve]	–
Cc1ccc(-c2ccc(SCC(=O)N3CCCc4ccccc43)nn2)cc1	inconclusive: 12.6 µM [inhibitor, single point]	–

Compound	Potency	activity change, negative = inhibition
CC(=O)c1cccc(S(=O)(=O)NCC(c2ccco2)N2CCCCC2)c1 (stereo not given)	–	inactive: -18.1%
O=C(OCc1ccccc1)c1cn(-c2ccccc2)nc1-c1ccncc1	–	inactive: 5.59%
Cc1ccc(S(=O)(=O)N(CC(=O)Nc2cccc(N(C)S(C)(=O)=O)c2)c2ccc(Cl)c(Cl)c2)cc1	inconclusive: 35.5 µM [inhibitor, single point]	–
Oc1ccc(N=Cc2cc(Br)c(N3CCOCC3)o2)cc1	inconclusive: 20 µM [activator, single point]	–
COc1ccc(O)c(/C=N/NC(=O)c2ccc(OCc3cccc(Br)c3)cc2)c1	inconclusive: 6.31 µM [inhibitor, full curve, poor fit]	–
COc1ccccc1N1CC(C)(C)C(=O)N(C(=O)c2ccc(C)cc2)C1=S	–	inactive: 5.3% [at 9.22 µM]
N#CC1=C(N)N=C(SCc2ccccc2)C(C(N)=O)C12CCCCC2 (stereo not given)	–	inactive: 0.356%
Cc1ccc(N2CCN(C(=O)c3ccccc3F)CC2)c(C)c1	inconclusive: 7.94 µM [inhibitor, partial curve, poor fit]	–
O=C(Nc1ccccc1)c1nnsc1S(=O)c1ccc(Cl)cc1 (stereo not given)	inconclusive: 31.6 µM [inhibitor, single point]	–
COC(=O)c1cn(CC(=O)N2CCCCC2C)c2ccccc12 (stereo not given)	–	inactive: -14.2%
COC(=O)c1ccc(NC(=O)CSCC(=O)OCC(=O)c2ccc(Br)cc2)cc1	–	inactive: 15.1%
COc1ccc(-n2c(C)cc(C(=O)CN3C(=O)NC4(CCCc5sccc54)C3=O)c2C)cc1 (stereo not given)	inconclusive: 7.08 µM [inhibitor, partial curve]	–
Cn1c(C(=O)N2CCCC(C(=O)NCCc3ccccc3)C2)cc2sccc21 (stereo not given)	inconclusive: 35.5 µM [inhibitor, single point]	–
CC(C)(C)c1ccc(C(=O)NCc2cccnc2)cc1	inconclusive: 35.5 µM [inhibitor, single point]	–
Nc1nc(C(=O)N2CCOCC2)nn1S(=O)(=O)c1ccc(Cl)cc1	–	inactive: -20.1%
CN(C(=O)C1CCOC1)c1nnc(-c2cnccn2)s1 (stereo not given)	inconclusive: 4.47 µM [activator, single point]	–
COc1ccccc1C(=O)N(Cc1nc(-c2ccc(Cl)cc2)no1)C(C)C	inconclusive: 25.1 µM [inhibitor, single point]	–
CC(=O)Nc1ccc(S(=O)(=O)NCCSCc2c(Cl)cccc2Cl)cc1	inconclusive: 25.1 µM [inhibitor, single point]	–
O=S(=O)(NC1c2cccc3cccc(c23)C1Sc1ncccn1)c1ccc(Cl)cc1 (stereo not given)	inconclusive: 3.16 µM [inhibitor, single point]	–
COc1ccc(-c2cc(C(F)(F)F)n3ncc(C(=O)NCc4ccco4)c3n2)cc1	inconclusive: 20 µM [activator, single point]	–
CCCCCN1C/C=C\C(c2ccc(OC)cc2)N(Cc2ccc(F)cc2)C(=O)C1 (stereo not given)	inconclusive: 0.447 µM [inhibitor, single point]	–

By substructure, the compounds so far containing bromine
Compound	Potency	activity change, negative = inhibition
Oc1ccc(N=Cc2cc(Br)c(N3CCOCC3)o2)cc1	inconclusive: 20 µM [activator, single point]	–
COc1ccc(O)c(/C=N/NC(=O)c2ccc(OCc3cccc(Br)c3)cc2)c1	inconclusive: 6.31 µM [inhibitor, full curve, poor fit]	–
COC(=O)c1ccc(NC(=O)CSCC(=O)OCC(=O)c2ccc(Br)cc2)cc1	–	inactive: 15.1%
